Data as given in PubChem BioAssay AID1259254 (NCATS, 2017).

Test: 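Gene knock-downs that lead to re-replication, shown by excess G2 DNA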 (primary screen)
System: human HCT116 colorectal cancer cells
Knock-down reagent: single siRNA against human genes
Duration: 3 days
Read-out: 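Imaged Hoechst DNA stain sorts each cell into a cycle phase by DNA amount; per plate, G2 fraction set to 0% for non-targeting and 100% for GMNN siRNA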
Scale: G2 robust z-score: higher = more G2 cells, more excess DNA replication
Active means: 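Active siRNAs have a G2 robust z of 5 or more median absolute deviations over the median, which in these data means about 38% or higher of GMNN control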
The deposit covers about 59,000 reagents; shown is a random part of them. Over the whole deposit, about 1,550 (2.6%) got an active call. 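G2 share is only a proxy for re-replication; each gene was hit by three separate siRNAs, and active genes were retested.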 The numbers tell different reagents against one gene apart. Further read-outs or replicates are left out here. Not stated in the record: the amount of reagent.

G2 robust z-score, by gene and reagent
NCK1: #1 2.42 inactive; #2 -0.0765 inactive; #3 -0.238 inactive
IKBKG: #1 -0.542 inactive; #2 -0.112 inactive; #3 -0.384 inactive
ATG4A: #1 -1.07 inactive; #2 -0.729 inactive; #3 -0.629 inactive
ZNF444: #1 0.353 inactive; #2 -1.47 inactive; #3 0.196 inactive
PIP4K2C: #1 -0.686 inactive; #2 -0.374 inactive; #3 -0.419 inactive
ERMARD: #1 -0.0433 inactive; #2 -0.813 inactive; #3 -0.24 inactive
ATXN2L: #1 -0.577 inactive; #2 3.12 inactive; #3 -0.0471 inactive
EIF4ENIF1: #1 -0.794 inactive; #2 -0.95 inactive; #3 -0.881 inactive
CTRC: #1 -0.453 inactive; #2 0.41 inactive; #3 -0.525 inactive
MT1X: #1 1.11 inactive; #2 2.42 inactive; #3 2.14 inactive

Records listed so far whose gene name starts with N or n:
G2 robust z-score, by gene and reagent
NCK1: #1 2.42 inactive; #2 -0.0765 inactive; #3 -0.238 inactive

Continued.
G2 robust z-score, by gene and reagent
INSC: #1 -0.637 inactive; #2 -0.151 inactive; #3 3.04 inactive
H2BW1: #1 -0.565 inactive; #2 -0.0246 inactive; #3 0.343 inactive
WRAP73: #1 -0.81 inactive; #2 1.13 inactive; #3 0.832 inactive
TRMT112P6: #1 -0.491 inactive; #2 1.3 inactive; #3 1.07 inactive
CTSA: #1 0.325 inactive; #2 -0.509 inactive; #3 0.406 inactive
CYP4A22: #1 0.821 inactive; #2 -0.351 inactive; #3 0.826 inactive
INTS5: #1 -0.457 inactive; #2 0.547 inactive; #3 0.285 inactive
WDR17: #1 0.255 inactive; #2 0.238 inactive; #3 2.1 inactive
SLC27A3: #1 4.14 inactive; #2 -0.179 inactive; #3 -0.994 inactive
DYNLRB1: #1 1.05 inactive; #2 0.768 inactive; #3 -0.541 inactive
PSMB3: #1 8.54 active; #2 1.33 inactive; #3 0.303 inactive
PARD6B: #1 0.724 inactive; #2 -0.406 inactive; #3 8.01 active
HMGN5: #1 0.706 inactive; #2 -0.671 inactive; #3 0.587 inactive
